Reference: publication PMC2701997
Results are given in words; binding and its absence hold for the method and conditions named. Binding seen in cells or lysates may run through a third protein. A result given as binding can be weak or reduced; the word gives no strength.

Target: Lin-7 (human (endogenous in WM115 and HMEC-1))
Test: co-IP; clarified lysates (1 mg/ml, 1% Triton lysis buffer) of WM115 and HMEC-1 cells; anti-AQP1, anti-Lin7 or anti-EphB2 overnight, protein A-Sepharose 90 min at 4°C; blots with anti-AQP-1 or anti-Lin7; all proteins endogenous

B1: AQP1 (protein, UniProt P29972 1-269)
chain: MASEFKKKLFWRAVVAEFLATTLFVFISIGSALGFKYPVGNNQTAVQDNVKVSLAFGLSIATLAQSVGHISGAHLNPAVTLGLLLSCQISIFRALMYIIAQCVGAIVATAILSGITSSLTGNSLGRNDLADGVNSGQGLGIEIIGTLQLVLCVLATTDRRRRDLGGSAPLAIGLSVALGHLLAIDYTGCGINPARSFGSAVITHNFSNHWIFWVGPFIGGALAVLIYDFILAPRSSDLTDRVKVWTSGQVEEYDLDADDINSRVEMKPK
  binding: binds
